The assay concerns the target T1, NCLX, mitochondrial Na+/Ca2+ exchanger (UniProt Q6J4K2).
T1 sequence: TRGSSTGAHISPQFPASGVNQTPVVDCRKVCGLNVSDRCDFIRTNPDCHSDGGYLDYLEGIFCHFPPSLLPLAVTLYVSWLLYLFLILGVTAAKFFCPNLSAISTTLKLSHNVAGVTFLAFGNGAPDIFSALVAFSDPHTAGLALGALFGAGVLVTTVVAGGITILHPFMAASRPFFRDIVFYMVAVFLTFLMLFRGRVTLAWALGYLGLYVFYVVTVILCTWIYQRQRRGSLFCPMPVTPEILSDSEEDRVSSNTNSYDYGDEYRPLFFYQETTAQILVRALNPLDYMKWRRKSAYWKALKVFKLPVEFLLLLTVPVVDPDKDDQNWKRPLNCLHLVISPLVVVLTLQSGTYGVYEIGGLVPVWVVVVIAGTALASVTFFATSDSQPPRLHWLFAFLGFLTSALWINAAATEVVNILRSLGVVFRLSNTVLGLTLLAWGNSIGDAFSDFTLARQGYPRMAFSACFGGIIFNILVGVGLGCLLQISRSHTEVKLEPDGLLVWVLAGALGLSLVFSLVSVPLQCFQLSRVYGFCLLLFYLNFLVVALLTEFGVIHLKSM
As to the kind of experiment: co-IP; whole cell lysates of OEC-M1 cells transiently transfected with Lon (or Lon K529R) and/or NCLX plasmids; immunoprecipitated with anti-Lon or anti-NCLX antibody; Western blot. For orientation: A western blot detects proteins with antibodies after separation by electrophoresis.

This note sets out measurements from article PMC8927349.

Results are given in words; binding and its absence hold for the method and conditions named. In cells and extracts the contact can be indirect. Some binding calls cover weakened binding; strength is not graded here.

B1: mitochondrial Lon (protein, UniProt P36776 68-959)
chain: FWEASSRGGGAFSGGEDASEGGAEEGAGGAGGSAGAGEGPVITALTPMTIPDVFPHLPLIAITRNPVFPRFIKIIEVKNKKLVELLRRKVRLAQPYVGVFLKRDDSNESDVVESLDEIYHTGTFAQIHEMQDLGDKLRMIVMGHRRVHISRQLEVEPEEPEAENKHKPRRKSKRGKKEAEDELSARHPAELAMEPTPELPAEVLMVEVENVVHEDFQVTEEVKALTAEIVKTIRDIIALNPLYRESVLQMMQAGQRVVDNPIYLSDMGAALTGAESHELQDVLEETNIPKRLYKALSLLKKEFELSKLQQRLGREVEEKIKQTHRKYLLQEQLKIIKKELGLEKDDKDAIEEKFRERLKELVVPKHVMDVVDEELSKLGLLDNHSSEFNVTRNYLDWLTSIPWGKYSNENLDLARAQAVLEEDHYGMEDVKKRILEFIAVSQLRGSTQGKILCFYGPPGVGKTSIARSIARALNREYFRFSVGGMTDVAEIKGHRRTYVGAMPGKIIQCLKKTKTENPLILIDEVDKIGRGYQGDPSSALLELLDPEQNANFLDHYLDVPVDLSKVLFICTANVTDTIPEPLRDRMEMINVSGYVAQEKLAIAERYLVPQARALCGLDESKAKLSSDVLTLLIKQYCRESGVRNLQKQVEKVLRKSAYKIVSGEAESVEVTPENLQDFVGKPVFTVERMYDVTPPGVVMGLAWTAMGGSTLFVETSLRRPQDKDAKGDKDGSLEVTGQLGEVMKESARIAYTFARAFLMQHAPANDYLVTSHIHLHVPEGATPKDGPSAGCTIVTALLSLAMGRPVRQNLAMTGEVSLTGKILPVGGIKEKTIAAKRAGVTCIVLPAENKKDFYDLAAFITEGLEVHFVEHYREIFDIAFPDEQAEALAVER
Take B1: the binding result is on record as “binds”.
